Experimental data published in PMC2714844.
No constants are given. Whether binding was seen depends on the method and setting. In cells and extracts the contact can be indirect. Some entries that bind do so weakly or less than the wild type. For some assays here: Sequences can lack the tags named with a protein.

Chains of the proteins cited; added tags and fusions are not shown. Lines headed by an entry give the natural chain unless they say otherwise; changes in a name come on top.
UniProt P00546: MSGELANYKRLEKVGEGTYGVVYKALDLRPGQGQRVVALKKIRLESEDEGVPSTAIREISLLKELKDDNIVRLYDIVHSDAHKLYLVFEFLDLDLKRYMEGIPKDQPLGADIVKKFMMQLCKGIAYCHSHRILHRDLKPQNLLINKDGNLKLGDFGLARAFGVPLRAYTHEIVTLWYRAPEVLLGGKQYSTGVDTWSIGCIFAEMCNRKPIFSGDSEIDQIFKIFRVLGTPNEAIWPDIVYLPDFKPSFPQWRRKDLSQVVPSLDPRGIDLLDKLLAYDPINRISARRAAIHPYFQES

Legend:
GST-Swe1 (yeast) = molecular target: T1, GST-Swe1 (yeast) (UniProt P32944); experiment: pull-down; GST-Swe1 coated glutathione beads (100 μl of 50% slurry) incubated overnight with 1 mg yeast extract, washed as for p13^Suc1 beads; extracts of wild-type or cdc28-E217V cells, with or without high copy CKS1; only the target purified
T1 sequence: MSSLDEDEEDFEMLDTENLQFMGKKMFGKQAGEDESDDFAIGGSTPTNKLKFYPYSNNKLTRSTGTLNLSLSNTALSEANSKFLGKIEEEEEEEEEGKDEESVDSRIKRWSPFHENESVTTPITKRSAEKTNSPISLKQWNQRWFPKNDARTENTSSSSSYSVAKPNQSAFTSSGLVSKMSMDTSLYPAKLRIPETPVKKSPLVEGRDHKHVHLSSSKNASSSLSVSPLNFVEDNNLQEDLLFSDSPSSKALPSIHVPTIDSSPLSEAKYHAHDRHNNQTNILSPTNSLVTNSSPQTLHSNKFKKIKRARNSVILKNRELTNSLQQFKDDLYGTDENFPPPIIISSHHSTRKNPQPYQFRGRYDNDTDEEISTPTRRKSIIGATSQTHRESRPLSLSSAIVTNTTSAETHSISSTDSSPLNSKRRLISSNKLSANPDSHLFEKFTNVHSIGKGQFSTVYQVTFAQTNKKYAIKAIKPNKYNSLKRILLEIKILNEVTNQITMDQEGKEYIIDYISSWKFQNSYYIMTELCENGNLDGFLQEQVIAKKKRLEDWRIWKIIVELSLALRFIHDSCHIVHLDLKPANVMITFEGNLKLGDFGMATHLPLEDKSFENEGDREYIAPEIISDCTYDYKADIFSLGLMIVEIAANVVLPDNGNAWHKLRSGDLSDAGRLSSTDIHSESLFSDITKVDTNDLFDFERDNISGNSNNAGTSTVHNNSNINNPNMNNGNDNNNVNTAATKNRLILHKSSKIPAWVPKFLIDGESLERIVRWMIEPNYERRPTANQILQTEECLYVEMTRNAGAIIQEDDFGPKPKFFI

[1] = molecular target: T2, p13^Suc1 (S. pombe Cks1 homolog) (S. pombe) (UniProt P08463); experiment: pull-down; 1 mg yeast protein extract incubated overnight at 4°C with 50 μl p13^Suc1 Sepharose bead slurry; extract buffer 50 mM Tris pH 7.6, 10% glycerol, 0.5% NP-40, 2 mM EDTA, 250 mM NaCl; beads washed five times; blot with anti-PSTAIRE; extracts of wild-type or cdc28-E217V cells at 30°C, and of swe1 or mih1 deletion strains; only the target purified
T2 sequence: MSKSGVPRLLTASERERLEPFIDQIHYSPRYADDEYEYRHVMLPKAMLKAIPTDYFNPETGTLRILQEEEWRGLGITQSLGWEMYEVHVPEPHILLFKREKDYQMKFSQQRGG

binding (GST-Swe1 (yeast))	binding [1]	Substance
binds	binds	Cdc28 (wild type) (from UniProt P00546 1-298)
binds	binds	Cdc28-E217V (from UniProt P00546 1-298)
–	binds	Tyr19-phosphorylated Cdc28 (from UniProt P00546 1-298)
